Consider three molecules from article PMC5937789.

Chains of the proteins cited; added tags and fusions are not shown. Lines headed by an entry give the natural chain unless they say otherwise; changes in a name come on top.
UniProt Q9W3M8: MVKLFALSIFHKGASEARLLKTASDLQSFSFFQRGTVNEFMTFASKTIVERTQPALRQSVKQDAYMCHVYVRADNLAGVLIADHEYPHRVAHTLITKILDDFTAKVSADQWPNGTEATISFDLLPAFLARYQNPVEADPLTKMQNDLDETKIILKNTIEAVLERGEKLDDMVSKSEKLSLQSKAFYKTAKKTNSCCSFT

Assay [1] deals with GST tagged, full length Ykt6 (Drosophila) (UniProt Q9W3M8). Put plainly: pull-down; 0.5 mg GST fused bait immobilised on glutathione resin; 40 ul resin with 20 mg fly (L3 larval) lysate in 20 mM Tris, 50 mM NaCl, 0.1% Triton-X, 2 mM beta-mercaptoethanol, 30 min at 4 C; washes with 300 mM NaCl; western blot; only the target purified. In general terms: A western blot detects proteins with antibodies after separation by electrophoresis.

For assay [2], the target named is GST tagged Ykt6[R164Q] full length (Drosophila). Described as above.

No constants are given. Whether binding was seen depends on the method and setting. Binding seen in cells or lysates may run through a third protein. Binding can be weak; no strength is given. Sequences can lack the tags named with a protein.

B1: endogenous Syx17 (protein, UniProt Q9VZC9 1-301)
chain: MTRDEKLPLKQAEVSIQRFQDVAVPHHLSLLKNHRSNIEKSLALGDWQKIKKEELNAMRVIKQIKNLLLEMDALREKVREEDLERFDDLMKPGRDTAFAGMKEFAELQLKSPTSTLSSQYDDDLDNQPQEVDMNSLPAHRHMPQLQLNFQLEEHQLAQRQACLDQMENLQQEIYDLHGMFQGMRQLTAEQSVAVEKIADNAEEALENVQQGELNLRRALTYKKAMYPVVGALLGTCVGGPIGLVAGMKAGGLAAVGCGILGFTGGSVLKANPNVMHGNIEEEQVEPDSESTERLELKEKPE
For the molecule B1, the binding result in assay [1] is reported as “binds”.

B2: endogenous Carnation/Car (Vps33A ortholog) (protein, UniProt Q9Y1I2 1-617)
chain: MFPHLKGHGQRVNLQLLQEAACRELLQQLDRIEGSKVIVLDETMIGPLDLVTRPKLFADRGIRLLALKPELHLPREVANVVYVMRPRVALMEQLAAHVKAGGRAAAGRQYHILFAPRRSCLCVSQLEVSGVLGSFGNIEELAWNYLPLDVDLVSMEMPNAFRDVSVDGDTSSLYQAAVGLVQLQRLYGRIPKIYGKGEFAHRVWEHAKQLGRDERTLYNGDKGVVDQLILLDRSIDLLSPLATQLTYEGLIDEFYGIRQNKLTLPAENFPSDGALPGGGGSGPRVEESQSLLGDTEKKTILLHSGEQLYAELRNKHFNEVTKLLARKAREIHVQMHATSQDKSVQEIKSFVENLLPQLMAQKKATSEHTAIAGLLHEQVNAVRFADDLAAEQEFMVCADIDKPSAYIEDLIACRVELNRVLRLICMQCHAASGFKEKLLNHYKRELVHVYGLEVLLTISNLEKSGLLHLQTESRAYSVLRKTLHLTVDDNVEIEPKDISYVHSFYAPLTARIVEHSLKPLGWQTLKSQINNLPGPTFEDFQAQLVGIGGRHTVTTVSEGSLLNVPRVVLVCFVGGCTFAEIAALRFLAAQEDNNVEFLIATTKVVNKHSFLDSLMSS
In the case of B2, the binding entry in assay [2] and in assay [1] was “binds” each time.

B3: myc-Dor/Vps18 (protein, UniProt Q24314 1-1002)
chain: MDTSMPNQPKFLPRIEHNSSGATANSYVATASGNPFETDEEDEIFSRHKMVLRVPSNCTGDLMHLAVSRNWLVCLLGTPERTTLLRFFLPRAIPPGEAVLEKYLSGSGYKITRMFLDPTGHHIIIALVPKSATAGVSPDFLYIHCLESPQAQQLKVRRIEKFKDHEITAVAFNPYHGNESSTGPILLGTSRGLIFETELNPAADGHVQRKQLYDLGLGRPKYPITGLKLLRVPNSSRYIIVVTSPECIYTFQETLKAEERSLQAIFAGYVSGVQEPHCEERKTDLTFSQLRFFAPPNSKYPKQWAWLCGEGIRVGELSIEANSAATLIGNTLINLDFEKTMHLSYGERRLNTPKAFVLTEYHAVLLYADHVRAICLLNQEQVYQEAFDEARVGKPLSIERDELTGSIYVYTVKTVFNLRVTREERNVWRIYLDKGQYELATAHAAEDPEHLQLVLCQRADAAFADGSYQVAADYYAETDKSFEEVCLKFMVLPDKRPIINYVKKRLSRVTTKPMETDELDEDKMNIIKALVIWLIDLYLIQINMPDKDEEWRSSWQTEYDEFMMEAHVLSCTRQNRETVRQLIAEHADPRNMAQFAIAIGDYDEVVAQQLKAECYAEALQTLINQRNPELFYKYAPELITRLPKPTVDALMAQGSRLEVEKLVPTLIIMENREQREQTQRYLEFAIYKLNTTNDAIHNFLLHLYAEHEPKLLMKYLEIQGRDESLVHYDIYYAHKVCTDLDVKEARVFLECMLRKWISAVDLALTFDMKLAKETASRPSDSKIRRKLWLRIAYHDIKGTNDVKKALNLLKECDLLRIEDLLPFFADFEKIDNFKEAICDALRDYNQRIQELQREMAETTEQTDRVTAELQQLRQHSLTVESQDTCEICEMMLLVKPFFIFICGHKFHSDCLEKHVVPLLTKEQCRRLGTLKQQLEAEVQTQAQPQSGALSKQQAMELQRKRAALKTEIEDILAADCLFCGLLISTIDQPFVDDWEQVNVEWE
For B3, the binding entry in assay [2] and in assay [1] was “binds” each time.
